PubChem BioAssay AID686938, Drosophila RNAi Screening Center – 2013
Aim: 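Knock-downs reducing store-operated calcium influx in Drosophila cells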 (primary screen). Cell system: Drosophila S2R+ cells. Reagents: long dsRNA against Drosophila genes, about 0.25 µg dsRNA per well, roughly 10,000 cells. Time to read-out: 5 days of knock-down before the calcium assay. Challenge: thapsigargin (SERCA pump blocker) to empty calcium stores; entry signal taken 4 min after adding it. Measurement: 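Duplicate raw fluo-4 intensities per well from a plate reader, at rest and four minutes after thapsigargin emptied calcium stores; entry-to-rest ratio filled for only some wells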. Direction: calcium entry signal: higher = stronger calcium signal after store depletion; resting calcium signal: higher = higher resting calcium signal. Units: calcium entry signal in fluorescence units; resting calcium signal in fluorescence units. Rule for the call: 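Called when the plate z-score of the entry-to-rest ratio, mean of duplicates, falls below −3; wells with low overall dye signal (Fmax z below −2) or more than five off-targets excluded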. Calls: active = strongly reduced calcium entry; inactive = no strong reduction.
The screen tested about 23,000 reagents; this is a random part of those that have a named target and a result. Of all reagents, 75 (0.33%) got an active call. 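Raw plate signals without normalisation; calls rest on plate z-scores that were not deposited; ratio present for only 364 wells.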 The numbers tell different reagents against one gene apart. Not stated in the record: the dose of the treatment.

What did the screen give for CG2291?
calcium entry signal, replicate 1: 3.49e7; calcium entry signal, replicate 2: 3.78e7; resting calcium signal, replicate 1: 1.56e7; resting calcium signal, replicate 2: 1.61e7; Outcome: inactive

What is on record for por?
calcium entry signal, replicate 1: 3.99e7; calcium entry signal, replicate 2: 3.28e7; resting calcium signal, replicate 1: 1.92e7; resting calcium signal, replicate 2: 1.51e7; Outcome: inactive

How did the screen score CG31948?
calcium entry signal, replicate 1: 4.06e7; calcium entry signal, replicate 2: 5.16e7; resting calcium signal, replicate 1: 1.83e7; resting calcium signal, replicate 2: 2.13e7; Outcome: inactive

With mim #1, what does the deposit list?
calcium entry signal, replicate 1: 3.47e7; calcium entry signal, replicate 2: 3.67e7; resting calcium signal, replicate 1: 1.88e7; resting calcium signal, replicate 2: 1.45e7; Outcome: inactive

For mim #2, how do the results read?
calcium entry signal, replicate 1: 3.88e7; calcium entry signal, replicate 2: 4.15e7; resting calcium signal, replicate 1: 2.13e7; resting calcium signal, replicate 2: 1.82e7; Outcome: inactive

What is on record for CG6688?
calcium entry signal, replicate 1: 5.20e7; calcium entry signal, replicate 2: 5.16e7; resting calcium signal, replicate 1: 2.48e7; resting calcium signal, replicate 2: 2.07e7; Outcome: inactive

For Ndc1, how do the results read?
calcium entry signal, replicate 1: 3.52e7; calcium entry signal, replicate 2: 2.86e7; resting calcium signal, replicate 1: 2.00e7; resting calcium signal, replicate 2: 1.63e7; Outcome: inactive

Which result is listed for thw?
calcium entry signal, replicate 1: 4.72e7; calcium entry signal, replicate 2: 3.51e7; resting calcium signal, replicate 1: 2.22e7; resting calcium signal, replicate 2: 1.75e7; Outcome: inactive

Which result is listed for Sac1?
calcium entry signal, replicate 1: 2.90e7; calcium entry signal, replicate 2: 3.38e7; resting calcium signal, replicate 1: 1.43e7; resting calcium signal, replicate 2: 1.47e7; Outcome: inactive

What did the screen give for CG3764?
calcium entry signal, replicate 1: 3.15e7; calcium entry signal, replicate 2: 4.61e7; resting calcium signal, replicate 1: 1.40e7; resting calcium signal, replicate 2: 2.87e7; Outcome: inactive

For CG15742, how do the results read?
calcium entry signal, replicate 1: 4.52e7; calcium entry signal, replicate 2: 4.57e7; resting calcium signal, replicate 1: 2.05e7; resting calcium signal, replicate 2: 2.08e7; Outcome: inactive

With beat-IIa #1, what does the deposit list?
calcium entry signal, replicate 1: 3.54e7; calcium entry signal, replicate 2: 6.32e7; resting calcium signal, replicate 1: 1.77e7; resting calcium signal, replicate 2: 8.44e7; Outcome: inactive

What did the screen give for beat-IIa #2?
calcium entry signal, replicate 1: 3.80e7; calcium entry signal, replicate 2: 6.79e7; resting calcium signal, replicate 1: 1.87e7; resting calcium signal, replicate 2: 8.50e7; Outcome: inactive

For CG17982, how do the results read?
calcium entry signal, replicate 1: 2.98e7; calcium entry signal, replicate 2: 3.92e7; resting calcium signal, replicate 1: 1.50e7; resting calcium signal, replicate 2: 1.80e7; Outcome: inactive

Which result is listed for CG11200?
calcium entry signal, replicate 1: 4.12e7; calcium entry signal, replicate 2: 3.01e7; resting calcium signal, replicate 1: 1.88e7; resting calcium signal, replicate 2: 1.62e7; Outcome: inactive

With Orc5, what does the deposit list?
calcium entry signal, replicate 1: 5.04e7; calcium entry signal, replicate 2: 3.17e7; resting calcium signal, replicate 1: 2.17e7; resting calcium signal, replicate 2: 1.50e7; Outcome: inactive

What did the screen give for IleRS-m?
calcium entry signal, replicate 1: 3.33e7; calcium entry signal, replicate 2: 5.33e7; resting calcium signal, replicate 1: 1.68e7; resting calcium signal, replicate 2: 2.13e7; Outcome: inactive

What did the screen give for GstE14?
calcium entry signal, replicate 1: 2.72e7; calcium entry signal, replicate 2: 4.41e7; resting calcium signal, replicate 1: 1.51e7; resting calcium signal, replicate 2: 1.84e7; Outcome: inactive

With bsd, how do the results read?
calcium entry signal, replicate 1: 1.51e7; calcium entry signal, replicate 2: 2.81e7; resting calcium signal, replicate 1: 9.70e6; resting calcium signal, replicate 2: 1.47e7; Outcome: inactive

For Meics, how do the results read?
calcium entry signal, replicate 1: 2.50e7; calcium entry signal, replicate 2: 3.44e7; resting calcium signal, replicate 1: 1.39e7; resting calcium signal, replicate 2: 1.58e7; Outcome: inactive

For CG5114, what was measured?
calcium entry signal, replicate 1: 3.03e7; calcium entry signal, replicate 2: 4.01e7; resting calcium signal, replicate 1: 1.40e7; resting calcium signal, replicate 2: 2.79e7; Outcome: inactive

What is on record for sgll?
calcium entry signal, replicate 1: 4.01e7; calcium entry signal, replicate 2: 3.20e7; resting calcium signal, replicate 1: 1.90e7; resting calcium signal, replicate 2: 1.57e7; Outcome: inactive

For Usp10 #1, how do the results read?
calcium entry signal, replicate 1: 2.50e7; calcium entry signal, replicate 2: 2.22e7; resting calcium signal, replicate 1: 1.19e7; resting calcium signal, replicate 2: 1.06e7; Outcome: inactive

With Usp10 #2, how do the results read?
calcium entry signal, replicate 1: 2.31e7; calcium entry signal, replicate 2: 3.31e7; resting calcium signal, replicate 1: 1.33e7; resting calcium signal, replicate 2: 1.55e7; Outcome: inactive

For CG2124, how do the results read?
calcium entry signal, replicate 1: 3.82e7; calcium entry signal, replicate 2: 4.36e7; resting calcium signal, replicate 1: 1.73e7; resting calcium signal, replicate 2: 2.09e7; Outcome: inactive

Which result is listed for Mys45A?
calcium entry signal, replicate 1: 2.99e7; calcium entry signal, replicate 2: 2.61e7; resting calcium signal, replicate 1: 1.49e7; resting calcium signal, replicate 2: 1.43e7; Outcome: inactive

What did the screen give for spz3 #1?
calcium entry signal, replicate 1: 2.60e7; calcium entry signal, replicate 2: 3.16e7; resting calcium signal, replicate 1: 1.25e7; resting calcium signal, replicate 2: 1.41e7; Outcome: inactive

With spz3 #2, how do the results read?
calcium entry signal, replicate 1: 2.70e7; calcium entry signal, replicate 2: 2.94e7; resting calcium signal, replicate 1: 1.24e7; resting calcium signal, replicate 2: 1.23e7; Outcome: inactive

Reformatted: results already given.
{"target":"mim","dsRNA no.":2,"calcium entry signal, replicate 1":3.88e7,"calcium entry signal, replicate 2":4.15e7,"resting calcium signal, replicate 1":2.13e7,"resting calcium signal, replicate 2":1.82e7,"Outcome":"inactive"}
{"target":"CG6688","dsRNA no.":1,"calcium entry signal, replicate 1":5.20e7,"calcium entry signal, replicate 2":5.16e7,"resting calcium signal, replicate 1":2.48e7,"resting calcium signal, replicate 2":2.07e7,"Outcome":"inactive"}
{"target":"Ndc1","dsRNA no.":1,"calcium entry signal, replicate 1":3.52e7,"calcium entry signal, replicate 2":2.86e7,"resting calcium signal, replicate 1":2.00e7,"resting calcium signal, replicate 2":1.63e7,"Outcome":"inactive"}
